Assay results taken from patent US20170274075A1.
These are yes or no findings as the source states them, for the method shown. For some assays here: Binding seen in cells or lysates may run through a third protein. Some results given as binding are weak or reduced against the parent protein; the word gives no strength. Where a sequence is shown, tags or fusion partners need not be part of it.

Chains of the proteins cited; added tags and fusions are not shown. Lines headed by an entry give the natural chain unless they say otherwise; changes in a name come on top.
UniProt P35968: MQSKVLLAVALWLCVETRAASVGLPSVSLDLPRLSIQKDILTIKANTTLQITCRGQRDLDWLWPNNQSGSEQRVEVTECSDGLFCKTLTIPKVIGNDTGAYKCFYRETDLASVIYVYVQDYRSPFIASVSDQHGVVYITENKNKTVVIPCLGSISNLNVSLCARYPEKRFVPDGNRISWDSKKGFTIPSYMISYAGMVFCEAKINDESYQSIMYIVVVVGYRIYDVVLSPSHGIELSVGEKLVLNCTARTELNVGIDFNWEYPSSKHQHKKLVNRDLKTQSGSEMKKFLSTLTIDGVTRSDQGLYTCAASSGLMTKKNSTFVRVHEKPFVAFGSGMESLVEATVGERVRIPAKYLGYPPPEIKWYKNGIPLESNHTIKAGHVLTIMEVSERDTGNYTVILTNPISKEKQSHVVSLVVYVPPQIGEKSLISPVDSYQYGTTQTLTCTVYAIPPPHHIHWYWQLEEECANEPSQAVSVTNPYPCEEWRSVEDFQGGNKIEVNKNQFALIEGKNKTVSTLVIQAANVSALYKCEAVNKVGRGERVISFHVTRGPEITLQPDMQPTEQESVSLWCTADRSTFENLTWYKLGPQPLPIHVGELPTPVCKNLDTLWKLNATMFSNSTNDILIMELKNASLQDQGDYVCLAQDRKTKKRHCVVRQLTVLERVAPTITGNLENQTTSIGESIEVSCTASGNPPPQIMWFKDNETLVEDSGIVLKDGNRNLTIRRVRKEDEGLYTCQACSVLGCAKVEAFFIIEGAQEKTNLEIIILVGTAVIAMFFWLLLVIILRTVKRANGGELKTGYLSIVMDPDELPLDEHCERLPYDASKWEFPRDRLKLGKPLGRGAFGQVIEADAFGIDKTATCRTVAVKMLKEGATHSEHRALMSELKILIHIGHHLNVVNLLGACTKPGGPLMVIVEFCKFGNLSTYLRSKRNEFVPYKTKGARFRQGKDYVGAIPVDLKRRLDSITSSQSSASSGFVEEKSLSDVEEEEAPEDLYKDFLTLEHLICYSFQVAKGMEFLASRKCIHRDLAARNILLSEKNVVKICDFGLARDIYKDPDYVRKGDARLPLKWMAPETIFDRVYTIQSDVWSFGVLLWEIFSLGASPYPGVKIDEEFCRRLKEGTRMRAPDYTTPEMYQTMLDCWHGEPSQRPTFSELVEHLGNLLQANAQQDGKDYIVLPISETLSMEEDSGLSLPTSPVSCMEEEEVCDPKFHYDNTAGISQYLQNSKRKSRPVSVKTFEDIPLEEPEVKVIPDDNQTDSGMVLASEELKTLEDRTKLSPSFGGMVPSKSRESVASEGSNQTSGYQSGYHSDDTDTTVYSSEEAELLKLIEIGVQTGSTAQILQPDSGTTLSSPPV

Key:
[1] = target: vascular endothelial growth factor receptor-2 (VEGFR-2) (human) (UniProt P35968); assay: summary of Example 1 (co-immunoprecipitation)
[2] = target: vascular endothelial growth factor receptor-2 (VEGFR-2) (human) (UniProt P35968); assay: co-immunoprecipitation after cell surface biotinylation or Brefeldin A treatment
[3] = target: vascular endothelial growth factor receptor-2 (VEGFR-2) (human) (UniProt P35968); assay: cell surface biotinylation, then IP with anti-VEGFR-2 and blot with anti-c-Myc (FIG. 7A)
[4] = target: vascular endothelial growth factor receptor-2 (VEGFR-2) (human) (UniProt P35968); assay: conclusion drawn from the co-immunoprecipitation and cycloheximide-chase experiments
[5] = target: vascular endothelial growth factor receptor-2 (VEGFR-2) (human) (UniProt P35968); assay: cell surface biotinylation, non-biotinylated and biotinylated fractions immunoprecipitated with anti-VEGFR-2 and blotted with anti-c-Myc
[6] = target: vascular endothelial growth factor receptor-2 (VEGFR-2) (human) (UniProt P35968); assay: co-immunoprecipitation from HEK-293 cells co-transfected with Myc-tagged PDCL3 and VEGFR-2, treated with Brefeldin A or vehicle (IP anti-c-Myc, immunoblot anti-VEGFR-2)
[7] = target: vascular endothelial growth factor receptor-2 (VEGFR-2) (human) (UniProt P35968); assay: co-immunoprecipitation from HEK-293 lysates (IP anti-VEGFR-2, blot anti-Myc; FIG. 6A); wild type is the weaker reference
[8] = target: vascular endothelial growth factor receptor-2 (VEGFR-2) (human) (UniProt P35968); assay: co-immunoprecipitation (IP anti-c-Myc, blot anti-VEGFR-2) from HEK-293 cells treated with Brefeldin A (FIG. 7B)
[9] = target: vascular endothelial growth factor receptor-2 (VEGFR-2) (human) (UniProt P35968); assay: co-immunoprecipitation from lysates of HEK-293 cells co-expressing VEGFR-2 (IP anti-VEGFR-2, immunoblot anti-c-Myc)
[10] = target: vascular endothelial growth factor receptor-2 (VEGFR-2) (human) (UniProt P35968); assay: co-immunoprecipitation (FIG. 6A), retold in the detailed description
[11] = target: vascular endothelial growth factor receptor-2 (VEGFR-2) (human) (UniProt P35968); assay: co-immunoprecipitation from HEK-293 lysates (IP anti-VEGFR-2, blot anti-Myc)
[12] = target: vascular endothelial growth factor receptor-2 (VEGFR-2) (human) (UniProt P35968); assay: co-immunoprecipitation from HEK-293 lysates (IP anti-VEGFR-2, blot anti-Myc; FIG. 6A)

Row | binding [1] | binding [2] | binding [3] | binding [4] | binding [5] | binding [6] | binding [7] | binding [8] | binding [9] | binding [10] | binding [11] | binding [12] | Binder
1 | binds | binds | binds | binds | binds | binds | binds | binds | binds | – | – | – | C-terminus Myc-tagged PDCL3 (human phosducin-like protein 3, wild-type) (protein, not shown: small tags and cut ends, N-terminal methionine acetylated (found by LC-MS/MS)) MQDPNADTEWNDILRKKGILPPKESLKELEEEAEEEQRILQQSVVKTYEDMTLEELEDHEDEFNEEDERAIEMYRRRRLAEWKATKLKNKFGEVLEISGKDYVQEVTKAGEGLWVILHLYKQGIPLCALINQHLSGLARKFPDVKFIKAISTTCIPNYPDRNLPTIFVYLEGDIKAQFIGPLVFGGMNLTRDELEWKLSESGAIMTDLEENPKKPIEDVLLSSVRRSVLMKRDSDSEGD
2 | binds | – | – | – | – | – | – | – | binds | binds | binds | binds | HA-tagged N-terminus methionine mutant PDCL3 (acetylation resistant) (protein, not shown: small tags and cut ends) QDPNADTEWNDILRKKGILPPKESLKELEEEAEEEQRILQQSVVKTYEDMTLEELEDHEDEFNEEDERAIEMYRRRRLAEWKATKLKNKFGEVLEISGKDYVQEVTKAGEGLWVILHLYKQGIPLCALINQHLSGLARKFPDVKFIKAISTTCIPNYPDRNLPTIFVYLEGDIKAQFIGPLVFGGMNLTRDELEWKLSESGAIMTDLEENPKKPIEDVLLSSVRRSVLMKRDSDSEGD
